Measurements reported in PubChem BioAssay AID1259284 (Sanger Institute, 2017).
Assay: 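siRNA screen across the kinome seeking partners for BYL719, cetuximab or trametinib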 (primary screen). System: SW48 human colorectal cancer cells. Reagents: siRNA pool against human genes. Conditions: anchor drug BYL719 at 1 µM, cetuximab at 5 µg/ml or trametinib at 10 nM, or DMSO vehicle alone. Read-out: 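Cell viability relative to non-targeting pool wells, replicate mean, with robust z-scores and drug synergy scores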. Direction: robust z-score, no drug: higher = more cells survive knock-down; viability, no drug: higher = more viable cells; synergy with BYL719 and synergy with trametinib: higher = stronger combined killing with drug. Active means: 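Called essential when the robust z-score of viability without drug falls below -3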. Meaning of the calls: active = essential without drug; inactive = no change without drug.
The whole screen tested 794 reagents; shown is a random part of them. In the full data, 16 (2%) got an active call. 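Calls concern knock-down without drug only; drug synergy was judged apart, with scores above 0.15 taken as synergy.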 Unmarked entries are inactive. No viability above 1 is reported: the scale is capped. Further read-outs or replicates are left out here. Reagent sequences are not shown. Not given: the amount of reagent, the time to read-out.

| target gene | robust z-score, no drug | viability, no drug (fraction of control) | synergy with BYL719 | synergy with trametinib |
| --- | --- | --- | --- | --- |
| ASPM | 0.426 | 1 | -0.23 | -0.00991 |
| GK | 0.426 | 1 | -0.198 | -0.0943 |
| STYK1 | 0.426 | 1 | -0.184 | -0.191 |
| CALM3 | -0.0219 | 0.962 | -0.00986 | 0.156 |
| CLK3 | 0.426 | 1 | -0.132 | -0.0329 |
| HK3 | 0.426 | 1 | -0.176 | -0.065 |
| PNKP | 0.354 | 0.994 | -0.176 | -0.0335 |
| GUCY2F | 0.426 | 1 | -0.145 | -0.0765 |
| GRK7 | 0.426 | 1 | -0.0586 | 0.109 |
| MAP2K4 | 0.426 | 1 | -0.0129 | -0.0977 |
